Results from PubChem BioAssay AID1508600 (Functional Genomics Laboratory (NCATS/FGL), 2020).
Among all 53,000 sequences or so, about 3,700 (7%) were called active.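 The calls were made as follows: active = gene knockdowns whose robust z-score for IL-1 alpha signal is at least 2 or at most -2, so actives lie on both sides; inactive = the rest.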 This is one part of the list.

Assay: Components of the Cytosolic LPS Sensing Pathway: Gene Identification via Genome-wide siRNA Screen;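 also: robust z of the log signal after scaling to non-targeting control siRNA wells of the plate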
Conditions: RAW264.7 macrophages, IL-1a HTRF, actives lie on both sides, screened at 100 nM (by protocol), cells primed 5 h with Pam3CSK4 first
Procedure, shortened: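 Read-out: IL-1a HTRF on supernatant, divided by plate negative-control median ×100, log-transformed and converted to robust z-score. Cells were RAW264.7 given 100 nM siRNA, Pam3CSK4-primed 5 hours, then LipidA-transfected 24 hour.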

| Sequence | z-score |
| --- | --- |
| GGUUGUAGGCCAUAAAGAATT against Marchf5 | inactive: -0.544 |
| CGACAAUGCCAUCGAUUCGTT against Sdc3 | inactive: 0.0399 |
| GGGAUGAUAGAACUUCUCATT against Phospho2 | inactive: -1.8 |
| GGAGAAACCUCAGCUAAAGTT against Artn | inactive: 0.602 |
| GUUGAACAAUCUUGUCCUGTT against Rps25 | inactive: 0.518 |
| GCACUGAACAGUUGAGAAATT against Zadh2 | inactive: 0.309 |
| GGGACCGUCUUAAACAUCUTT against Rsl1d1 | active: 2.92 |
| GGAAGUAAAGGGAUUUAACTT against Ankrd46 | active: 2.19 |
| GGUGAUGAUGUCCAGAAGUTT against Kdm4d | inactive: -0.913 |
| GGCUCUGUACCAUGAGGAATT against Krt84 | inactive: 1.1 |
| GGUGUCCAUCUACUAUGGCTT against Prrxl1 | inactive: 0.316 |
| GGAUGAAAUCUCCAAGAAATT against Btg3 | inactive: -0.86 |
| GCUGGUUUUCAUCUCUAAATT against Slc5a5 | inactive: 0.951 |
| GCUGAUCAAUAACUAUGAUTT against Ezh1 | inactive: -0.866 |
| GCCAAGAGGUUAAAAGACUTT against Rabep2 | inactive: -0.495 |
| GGGCUCUAGAGUAAAAUAATT against H3f3b | inactive: -1.27 |
| GGUCUCCAGACUUGUAUAATT against Klri2 | inactive: 0.225 |
| GGAAAGGAAAGCUAUGACATT against Crhr2 | inactive: -1.02 |
| GGAAAAGUGGACAAAAUUGTT against Ncoa6 | inactive: 1.83 |
| GGGCUUCUGCUUCAACAUCTT against Septin6 | inactive: 0.00764 |
| CCGAUAAAAGAUGACCUCATT against D17H6S56E-5 | inactive: -0.241 |
| CCCAGACCAAUUCAUCUUATT against Ifngr2 | inactive: 0.0218 |

| Sequence | z-score |
| --- | --- |
| GGACUACAUGUUUGAAACCTT against Ugt2a1 | inactive: -1.21 |
| GCUUUGUUUUAGGACCUUUTT against Rdh1 | inactive: 0.233 |
| GGAAUGUGGAUAAAAACGATT against Ncam1 | inactive: 1.09 |
| CCCAUUCCUAGGAUUAUCGTT against Arf6 | inactive: -0.384 |
| GGAUGGUCAUAAGGAUCAATT against Adgrg7 | inactive: 0.377 |
| GGUCUGAAAGGCAUGAUACTT against Adam4 | inactive: 0.065 |
| GGAACGUAUGAAGUUAAACTT against Cd80 | inactive: 0.428 |
| GGCAUGUGGUUGAAGGCCUTT against Fank1 | inactive: -0.337 |
| GCUGUUCGUGAGGAUAACCTT against Yipf1 | inactive: 1.2 |
| GGAUGUUGAACAAAAGAAGTT against Abce1 | inactive: -0.863 |
| GUCUCCACUGGUGCCUAUATT against Higd1b | inactive: -0.095 |
| GGUGGUUUAAAGACUUGAUTT against D1Pas1 | inactive: -0.683 |
| GGUAGCUGUCCAGGGUUAUTT against Alkbh6 | inactive: -1.44 |
| GGCCAAGAAGACUUAUGUATT against Tufm | inactive: -1.17 |
| GCUCAUGUCAGGAGAGAGUTT against Ocel1 | active: -2.41 |
| CCAAUGCCGCCAGAAGUUATT against Siah2 | inactive: 0.295 |
| GGCCGCUACCUUUAUGAACTT against Prpf3 | inactive: 0.219 |
| GGACUGGUUCACUUUGUGGTT against Cox7a2l | inactive: 0.629 |
| CCCAGUAAUAUGAAAAGAGTT against Gucy2f | inactive: -0.408 |
| GGAAGAUUCAUGAGAUAUUTT against Prdm5 | inactive: -0.914 |
| CGGUGUUCAACUGCACUUUTT against Thsd1 | inactive: 0.0704 |
| GCACACUCACUUGGUUCGUTT against Dsg2 | inactive: 0.684 |

Copied from the entries so far for reference:

| Sequence | z-score |
| --- | --- |
| GGUGGUUUAAAGACUUGAUTT against D1Pas1 | inactive: -0.683 |
| GGUAGCUGUCCAGGGUUAUTT against Alkbh6 | inactive: -1.44 |
| GGCCAAGAAGACUUAUGUATT against Tufm | inactive: -1.17 |
| GCUCAUGUCAGGAGAGAGUTT against Ocel1 | active: -2.41 |

Retrieved one by one from the entries so far, two records:

| Sequence | z-score |
| --- | --- |
| CCGAUAAAAGAUGACCUCATT against D17H6S56E-5 | inactive: -0.241 |
| CCCAGACCAAUUCAUCUUATT against Ifngr2 | inactive: 0.0218 |

(next part)

| Sequence | z-score |
| --- | --- |
| CCUCAUGGAUGUUCGUAGATT against P2ry10 | inactive: 0.452 |
| CGGACUUGAGAGCAGAACCTT against Oit1 | active: 2.02 |
| GGUGAUUGACACCAAAUCUTT against Slk | inactive: -0.652 |
| GGACUUCGUGAACAAGAUCTT against Grin2b | inactive: -0.439 |
| GGACAACACACCAUUUCUCTT against Pcbp1 | inactive: -0.317 |
| GGCAGAACAGGCAUUUUCATT against Nipal3 | inactive: -1.86 |
| GCAAUUUCCAGAAGUUAUCTT against Baz2a | inactive: 1.18 |
| CCGGAUAUUUAUCAGUGAUTT against Tiam2 | inactive: 0.203 |
| GGGAUCAAAACAUACUGUGTT against Klra4 | inactive: 0.0891 |
| GAGAACCAGGCUAUGUCUGTT against Defa-rs10 | inactive: 0.623 |
| GGAGCAGGCAUCGUGUUUATT against Cdh20 | inactive: 1.8 |
| GGGUUAGCUCCCGUCAUCATT against Zbtb41 | inactive: -0.761 |
| GGAUUCAGGAGUUCAUUGATT against Maea | inactive: 0.281 |
| GGCAGACGGUAAUAAACAUTT against Ralgapb | inactive: -1.08 |
| GGUUGCACAAAAGAAGCUGTT against Pemt | inactive: -1.29 |
| CCGGAGUUAUACCGUAAGATT against Plaur | inactive: -0.671 |
| GGAACUUUUUCAGAGCUCUTT against Senp3 | inactive: -1.6 |
| GCUAGAGAUCCGGAUUAAGTT against A930018P22Rik | inactive: -0.412 |
| CCCUUAAAAUGUGCAUAUCTT against Tmem186 | inactive: 0.884 |
| GGUAUCAGACAAACACCAGTT against Syt5 | inactive: -1.12 |
| GGAUUUUCCAGGCAUGAGGTT against Ehd3 | active: -2.24 |
| CGUGACUUCUAUCAUACUUTT against Fntb | inactive: -0.254 |

| Sequence | z-score |
| --- | --- |
| GGAUAAUUUAAACAUGGGATT against Cd276 | inactive: -1.08 |
| GGUCAUGUGAAUUUUUCUGTT against Eftud2 | inactive: -1.31 |
| GGAAGAUGAAAGAAGAGAGTT against Igdcc3 | inactive: 0.409 |
| GCUCCCAUACAGCACCUUCTT against Tbx2 | inactive: -0.018 |
| GGGCUCUACAGUUUUUAAUTT against Atp5g3 | inactive: 1.31 |
| GGCAAAAAGGCAGUAGCCATT against Ncl | inactive: 0.644 |
| GCAGUUGUUUUGACUUACUTT against E330018D03Rik | inactive: 0.8 |
| GCAACAAUCUGAGGACGACTT against Celf4 | inactive: 0.667 |
| CGCACUUACCGUGUCCUAUTT against Homer3 | inactive: 0.0495 |
| AUCUGAGGAAAUCGCCCUATT against Olfr1278 | inactive: 0.291 |
| GGAUUCUUUACAGAAUCAATT against Ahsa2 | inactive: -0.731 |
| GGACUUAGAGAGUUUCUUGTT against Numa1 | inactive: -0.258 |
| GCCCAGAUUAUCAGAUCUGTT against Tnfaip2 | inactive: 0.54 |
| CCCACUCCUUCUAAAAGUUTT against Cyp3a13 | inactive: -0.909 |
| GGUGAAAGAUGCCUCUAAGTT against Olfr1038-ps | inactive: 0.51 |
| GCAAAUCUUGUAAUAACACTT against Uty | inactive: 0.254 |
| GGACUGGUUCUUCAGUACCTT against Cradd | active: 2.21 |
| GGACAAUGGAGCUCAAGUCTT against Prelid3b | inactive: 0.752 |
| GCUCAAUCAAAAAGAUCCUTT against Spata2l | inactive: -0.907 |
| GGAACUAUCUUGGUGAAGCTT against Robo2 | inactive: -0.977 |
| GGUUGUUGACAAACAAAAATT against Fam161b | inactive: -1.2 |
| GGCCUCACUUGGAUCCUUATT against Zfx | inactive: 0.167 |

| Sequence | z-score |
| --- | --- |
| GGCUCUCAGCUGAAAGAAATT against Wdr86 | inactive: 1.2 |
| GGAGUUUGAGGAAGAUCUGTT against Rbp1 | inactive: -0.953 |
| GGAUCUCAAGAGUGUUGUUTT against Rnf10 | inactive: -0.396 |
| GGAAUAACUUUCCAUACCATT against Zfp959 | inactive: 0.508 |
| GGUCACUGUGCAAUGAAAATT against Olfr435 | inactive: -0.535 |
| GGAUAAAACCAGAACUCUATT against Syt10 | inactive: -0.413 |
| GCCCAUUACCAAGCACAUCTT against Psma2 | inactive: -1.72 |
| GGCCCAGAACCGCAUUAAATT against Pdlim4 | inactive: 0.0557 |
| GCUACAAGUGUUGCCUGAATT against Slit1 | inactive: 1.21 |
| GCUUGUUGAAAGGCCGAGCTT against Ankmy2 | inactive: 0.142 |
| GGAGCUAAGACAGUUUGGATT against Uroc1 | inactive: 1.06 |
| GGUGAACAAUACGGCUGUGTT against Tmem245 | inactive: -0.146 |
| GGAGCUCCAGCUUCUUGAATT against E130309D02Rik | inactive: 0.717 |
| GGUGGUUUGUGAUUGGCUUTT against Ctnnbip1 | inactive: 0.533 |
| GCGAUCAAAAUUGUGUCACTT against Minar2 | inactive: -0.776 |
| GGAUAUCAUCGUGUUUAUUTT against Vps45 | inactive: 0.612 |
| GCAGAAACAAGGUUGAGAATT against Tgm6 | inactive: 1.1 |
| GCAUCUGCAUUUUUUGCUATT against Prox1 | inactive: 1.29 |
| GGCCAUCAUGAAGAUUGCCTT against Htr2c | inactive: -0.995 |
